Test results reported in the supplement of paper PMC10849652.
This is one part of the list.

Chains of the proteins cited; added tags and fusions are not shown. Lines headed by an entry give the natural chain unless they say otherwise; changes in a name come on top.
UniProt O60331: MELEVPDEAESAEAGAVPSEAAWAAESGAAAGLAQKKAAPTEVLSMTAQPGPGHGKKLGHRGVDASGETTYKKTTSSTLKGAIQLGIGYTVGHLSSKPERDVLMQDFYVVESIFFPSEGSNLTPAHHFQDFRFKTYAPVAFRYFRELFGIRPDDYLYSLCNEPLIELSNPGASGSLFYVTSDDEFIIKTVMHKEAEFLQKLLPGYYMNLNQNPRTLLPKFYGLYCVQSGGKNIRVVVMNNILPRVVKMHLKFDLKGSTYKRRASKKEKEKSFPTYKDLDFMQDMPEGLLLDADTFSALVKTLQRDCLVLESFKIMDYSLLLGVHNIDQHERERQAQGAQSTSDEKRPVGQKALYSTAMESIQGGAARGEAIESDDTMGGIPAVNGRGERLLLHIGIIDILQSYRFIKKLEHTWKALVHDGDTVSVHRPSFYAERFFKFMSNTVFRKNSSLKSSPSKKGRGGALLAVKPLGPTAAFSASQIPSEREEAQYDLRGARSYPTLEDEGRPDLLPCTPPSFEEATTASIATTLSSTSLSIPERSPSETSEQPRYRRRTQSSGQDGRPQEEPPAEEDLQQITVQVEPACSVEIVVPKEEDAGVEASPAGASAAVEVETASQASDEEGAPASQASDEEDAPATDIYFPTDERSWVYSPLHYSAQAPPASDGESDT
UniProt Q9P1Y6: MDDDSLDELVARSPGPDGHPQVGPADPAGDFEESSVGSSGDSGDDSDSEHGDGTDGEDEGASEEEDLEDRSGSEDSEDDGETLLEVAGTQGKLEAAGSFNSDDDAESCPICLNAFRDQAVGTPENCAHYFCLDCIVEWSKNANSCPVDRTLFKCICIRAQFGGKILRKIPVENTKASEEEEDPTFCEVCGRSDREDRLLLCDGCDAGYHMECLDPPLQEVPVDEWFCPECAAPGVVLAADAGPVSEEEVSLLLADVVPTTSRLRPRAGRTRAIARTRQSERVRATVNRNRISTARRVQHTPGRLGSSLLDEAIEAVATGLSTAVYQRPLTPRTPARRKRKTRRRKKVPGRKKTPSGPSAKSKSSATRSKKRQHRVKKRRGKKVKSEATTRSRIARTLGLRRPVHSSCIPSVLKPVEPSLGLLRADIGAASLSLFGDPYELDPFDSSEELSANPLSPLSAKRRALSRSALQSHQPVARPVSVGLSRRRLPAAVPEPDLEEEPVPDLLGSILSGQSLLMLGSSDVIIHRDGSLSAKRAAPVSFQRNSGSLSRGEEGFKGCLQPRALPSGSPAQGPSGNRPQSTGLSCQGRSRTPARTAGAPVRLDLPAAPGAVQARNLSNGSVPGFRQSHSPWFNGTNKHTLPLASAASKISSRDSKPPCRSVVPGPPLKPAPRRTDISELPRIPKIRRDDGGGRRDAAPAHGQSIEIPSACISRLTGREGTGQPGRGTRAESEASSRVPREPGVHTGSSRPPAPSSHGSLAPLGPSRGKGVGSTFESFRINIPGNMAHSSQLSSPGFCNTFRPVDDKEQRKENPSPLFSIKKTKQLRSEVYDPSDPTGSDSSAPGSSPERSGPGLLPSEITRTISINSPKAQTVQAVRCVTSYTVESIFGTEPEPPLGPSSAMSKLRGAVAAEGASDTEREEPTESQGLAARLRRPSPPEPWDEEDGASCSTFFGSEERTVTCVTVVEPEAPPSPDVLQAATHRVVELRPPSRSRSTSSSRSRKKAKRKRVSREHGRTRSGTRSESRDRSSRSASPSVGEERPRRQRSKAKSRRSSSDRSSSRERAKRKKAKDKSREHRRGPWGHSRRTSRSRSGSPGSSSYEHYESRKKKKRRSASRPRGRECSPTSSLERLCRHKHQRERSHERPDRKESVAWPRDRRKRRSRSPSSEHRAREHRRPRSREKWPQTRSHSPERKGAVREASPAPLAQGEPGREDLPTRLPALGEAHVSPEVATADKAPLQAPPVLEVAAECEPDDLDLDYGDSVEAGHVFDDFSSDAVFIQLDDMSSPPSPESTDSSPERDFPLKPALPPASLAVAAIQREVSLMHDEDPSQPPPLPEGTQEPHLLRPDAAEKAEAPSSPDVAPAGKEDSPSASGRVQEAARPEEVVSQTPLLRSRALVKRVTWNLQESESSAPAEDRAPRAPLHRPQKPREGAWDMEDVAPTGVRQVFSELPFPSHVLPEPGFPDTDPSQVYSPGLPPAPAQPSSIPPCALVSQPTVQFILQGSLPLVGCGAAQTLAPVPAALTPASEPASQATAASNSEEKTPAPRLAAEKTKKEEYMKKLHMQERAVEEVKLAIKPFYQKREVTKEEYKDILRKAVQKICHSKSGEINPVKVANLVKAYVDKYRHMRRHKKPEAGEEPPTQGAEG
UniProt Q99569: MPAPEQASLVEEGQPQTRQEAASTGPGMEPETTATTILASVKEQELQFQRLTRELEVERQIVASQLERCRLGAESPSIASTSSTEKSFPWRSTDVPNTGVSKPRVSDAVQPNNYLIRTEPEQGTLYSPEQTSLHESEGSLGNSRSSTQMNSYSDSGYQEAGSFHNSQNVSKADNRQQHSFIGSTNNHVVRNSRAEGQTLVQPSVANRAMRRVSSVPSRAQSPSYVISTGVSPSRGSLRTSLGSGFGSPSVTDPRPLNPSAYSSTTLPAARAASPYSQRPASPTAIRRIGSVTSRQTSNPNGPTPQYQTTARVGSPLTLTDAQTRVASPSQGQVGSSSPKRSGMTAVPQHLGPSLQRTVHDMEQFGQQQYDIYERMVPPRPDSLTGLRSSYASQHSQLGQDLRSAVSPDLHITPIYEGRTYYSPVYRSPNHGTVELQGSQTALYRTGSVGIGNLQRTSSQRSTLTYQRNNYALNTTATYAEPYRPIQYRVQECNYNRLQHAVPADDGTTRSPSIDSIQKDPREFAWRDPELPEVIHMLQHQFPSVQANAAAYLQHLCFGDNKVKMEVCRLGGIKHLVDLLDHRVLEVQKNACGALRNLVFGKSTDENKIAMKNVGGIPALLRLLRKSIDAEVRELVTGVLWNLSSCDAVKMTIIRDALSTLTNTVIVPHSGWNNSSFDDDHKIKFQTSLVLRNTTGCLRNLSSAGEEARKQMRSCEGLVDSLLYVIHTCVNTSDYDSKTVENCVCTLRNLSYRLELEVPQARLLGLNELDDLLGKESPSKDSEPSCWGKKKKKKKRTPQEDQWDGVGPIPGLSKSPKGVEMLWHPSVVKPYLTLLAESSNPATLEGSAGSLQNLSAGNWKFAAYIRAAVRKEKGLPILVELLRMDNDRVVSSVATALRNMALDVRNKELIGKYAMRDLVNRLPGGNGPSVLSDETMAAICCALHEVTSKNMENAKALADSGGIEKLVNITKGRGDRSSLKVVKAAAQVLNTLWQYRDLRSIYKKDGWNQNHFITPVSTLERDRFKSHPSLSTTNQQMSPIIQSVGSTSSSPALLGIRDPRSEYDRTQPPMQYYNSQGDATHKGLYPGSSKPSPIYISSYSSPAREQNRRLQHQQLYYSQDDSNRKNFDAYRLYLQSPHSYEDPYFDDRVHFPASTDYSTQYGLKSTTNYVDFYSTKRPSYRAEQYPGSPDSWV
UniProt Q99640: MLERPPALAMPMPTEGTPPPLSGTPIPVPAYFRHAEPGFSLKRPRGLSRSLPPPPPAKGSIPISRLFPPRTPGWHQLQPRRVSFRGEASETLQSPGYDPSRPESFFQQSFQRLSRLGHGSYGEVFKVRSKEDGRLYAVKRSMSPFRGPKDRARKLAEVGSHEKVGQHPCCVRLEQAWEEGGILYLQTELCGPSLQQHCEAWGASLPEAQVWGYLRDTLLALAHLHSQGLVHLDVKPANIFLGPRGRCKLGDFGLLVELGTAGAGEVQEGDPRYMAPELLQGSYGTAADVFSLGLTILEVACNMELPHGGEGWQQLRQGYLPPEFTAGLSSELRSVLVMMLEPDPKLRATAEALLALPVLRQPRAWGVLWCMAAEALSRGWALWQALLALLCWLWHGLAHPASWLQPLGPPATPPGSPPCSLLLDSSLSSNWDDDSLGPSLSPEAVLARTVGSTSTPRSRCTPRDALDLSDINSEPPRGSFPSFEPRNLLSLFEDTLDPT
UniProt P36871: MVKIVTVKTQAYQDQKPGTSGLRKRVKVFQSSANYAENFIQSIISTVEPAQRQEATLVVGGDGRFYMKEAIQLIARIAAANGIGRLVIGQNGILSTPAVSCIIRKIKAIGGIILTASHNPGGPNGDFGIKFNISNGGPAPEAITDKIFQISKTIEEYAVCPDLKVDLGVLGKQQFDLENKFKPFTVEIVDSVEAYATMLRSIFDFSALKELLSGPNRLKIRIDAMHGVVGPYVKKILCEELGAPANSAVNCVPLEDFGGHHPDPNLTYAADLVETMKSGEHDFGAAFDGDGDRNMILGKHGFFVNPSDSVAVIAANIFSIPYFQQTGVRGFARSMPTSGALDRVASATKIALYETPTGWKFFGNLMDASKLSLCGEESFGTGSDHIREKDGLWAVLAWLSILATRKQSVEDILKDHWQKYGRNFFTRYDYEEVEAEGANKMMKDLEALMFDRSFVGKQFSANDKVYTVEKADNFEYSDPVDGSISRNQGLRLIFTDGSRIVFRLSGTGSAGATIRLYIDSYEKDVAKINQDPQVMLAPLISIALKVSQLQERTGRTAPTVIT
UniProt Q9C010: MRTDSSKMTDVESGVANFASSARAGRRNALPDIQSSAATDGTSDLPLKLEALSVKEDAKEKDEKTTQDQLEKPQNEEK
UniProt P08567: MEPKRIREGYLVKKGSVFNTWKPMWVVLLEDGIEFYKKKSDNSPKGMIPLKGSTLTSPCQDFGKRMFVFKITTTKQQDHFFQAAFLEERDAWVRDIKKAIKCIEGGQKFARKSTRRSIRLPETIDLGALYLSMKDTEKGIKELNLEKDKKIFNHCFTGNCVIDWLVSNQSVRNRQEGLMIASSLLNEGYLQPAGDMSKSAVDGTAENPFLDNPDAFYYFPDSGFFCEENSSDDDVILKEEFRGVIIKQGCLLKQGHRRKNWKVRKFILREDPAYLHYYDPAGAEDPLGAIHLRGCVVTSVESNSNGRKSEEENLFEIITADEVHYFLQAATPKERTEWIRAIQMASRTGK
UniProt Q92521: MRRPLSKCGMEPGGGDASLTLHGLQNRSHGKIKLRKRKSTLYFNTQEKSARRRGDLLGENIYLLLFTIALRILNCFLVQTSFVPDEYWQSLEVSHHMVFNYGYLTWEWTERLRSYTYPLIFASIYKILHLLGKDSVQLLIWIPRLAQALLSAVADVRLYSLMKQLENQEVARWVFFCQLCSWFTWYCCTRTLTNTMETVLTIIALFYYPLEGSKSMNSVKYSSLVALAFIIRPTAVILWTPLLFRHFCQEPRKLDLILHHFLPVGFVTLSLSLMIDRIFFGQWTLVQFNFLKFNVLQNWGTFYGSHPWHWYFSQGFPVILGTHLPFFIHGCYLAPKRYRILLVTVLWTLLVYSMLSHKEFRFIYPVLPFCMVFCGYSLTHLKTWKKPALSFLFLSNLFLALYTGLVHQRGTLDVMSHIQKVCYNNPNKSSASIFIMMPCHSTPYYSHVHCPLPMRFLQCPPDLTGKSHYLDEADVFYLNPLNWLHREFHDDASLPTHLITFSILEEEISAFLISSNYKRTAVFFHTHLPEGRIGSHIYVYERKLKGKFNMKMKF
UniProt Q9UBF8: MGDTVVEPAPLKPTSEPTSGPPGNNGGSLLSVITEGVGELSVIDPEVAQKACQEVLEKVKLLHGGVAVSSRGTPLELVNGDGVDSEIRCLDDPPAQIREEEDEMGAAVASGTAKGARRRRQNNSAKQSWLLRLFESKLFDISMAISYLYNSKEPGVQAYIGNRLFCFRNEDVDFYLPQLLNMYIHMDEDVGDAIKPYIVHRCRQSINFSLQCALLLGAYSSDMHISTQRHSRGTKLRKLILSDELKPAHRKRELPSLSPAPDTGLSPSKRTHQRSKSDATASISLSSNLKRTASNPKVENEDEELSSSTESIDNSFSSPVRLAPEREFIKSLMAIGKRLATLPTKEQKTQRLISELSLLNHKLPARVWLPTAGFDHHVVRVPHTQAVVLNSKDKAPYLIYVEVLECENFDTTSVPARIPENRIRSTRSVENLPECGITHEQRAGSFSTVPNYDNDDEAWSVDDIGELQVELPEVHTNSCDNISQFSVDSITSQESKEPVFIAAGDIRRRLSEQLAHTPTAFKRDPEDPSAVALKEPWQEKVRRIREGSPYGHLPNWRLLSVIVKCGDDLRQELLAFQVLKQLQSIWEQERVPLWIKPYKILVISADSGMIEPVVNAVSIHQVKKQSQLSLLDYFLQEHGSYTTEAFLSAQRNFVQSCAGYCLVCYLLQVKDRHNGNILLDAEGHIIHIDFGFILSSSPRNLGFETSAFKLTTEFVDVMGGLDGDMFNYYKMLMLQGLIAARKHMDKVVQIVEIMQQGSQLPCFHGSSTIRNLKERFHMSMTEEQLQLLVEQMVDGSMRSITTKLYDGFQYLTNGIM

Compound: C#Cc1cccc(Nc2ncnc3cc(OCCOC)c(OCCOC)cc23)c1 [erlotinib]
Experiment: log2 fold change, soluble protein after heating vs DMSO (PISA); higher = thermal stabilisation; K562 cells, 10 uM, 30 min; active = over 0.2 and 3.5 SD of the protein, either way, in both replicates (recomputed)
Outline: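 For each measurement, 10 μM compound was applied for 30 min to K562 cells at 2×10^6 cells/mL. Aliquots were heated for 3 min across 48°C-58°C, pooled, and extracted in PBS with 0.5% NP-40 at 4°C; the supernatant after 21,000xg for 90 min was soluble protein. This was quantified by TMTpro 16plex LC-MS/MS with channel sums equalised, and thermal stability was reported relative to control samples from duplicates, on a log2 fold-change scale.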

log2 fold change, inactive:
PIBF1 (UniProt Q8WXW3) 0.089
PIP5K1C isoform 3 (UniProt O60331) 0.047
PHYKPL (UniProt Q8IUZ5) 0.004
PHRF1 (UniProt Q9P1Y6) -0.161
PKP4 (UniProt Q99569) 0.186
PIGO (UniProt Q8TEQ8) 0.031
PKMYT1 (UniProt Q99640) -0.123
PHF19 isoform 2 (UniProt Q5T6S3) 0.003
PIGX isoform 2 (UniProt Q8TBF5) 0
PGM1 isoform 2 (UniProt P36871) 0.111
PKIB isoform 2 (UniProt Q9C010) -0.057
PIK3C2A (UniProt O00443) 0.038
PIGM (UniProt Q9H3S5) 0.08
PLEK (UniProt P08567) -0.007
PIGB (UniProt Q92521) -0.008
PI4KB isoform 2 (UniProt Q9UBF8) -0.098
PHC3 isoform 7 (UniProt Q8NDX5) 0.08

No new results follow: an excerpt of the list.
log2 fold change, inactive:
PKIB isoform 2 (UniProt Q9C010) -0.057
PIK3C2A (UniProt O00443) 0.038
